Data from patent US20210113586A1, “NEW USE AND METHODS OF MODULATING IMMUNE RESPONSES” (DIAMYD MEDICAL AB, priority 2018, published 2021).

Key:
responder CD4+ T cells [1] = test: Proliferation of anti-CD3 stimulated GABA responder CD4+ T cells from ND individuals; assay type: cell-based, human
Description: (§1) Peripheral Blood Mononuclear cells (PBMCs) are isolated from blood from donors diagnosed with Type-1 diabetes and healthy controls. Alternatively, CD4-positive cells (T-cells) are further isolated from PBMCs by e.g. MACS beads, FACS or similar technology. […] A reasonable replication, such as 3 cultures of each condition, is performed. A normalized proliferation value for each culture is then calculated by a standard proliferation measurement method, such as by CFSE staining or radioactive thymidine incorporation (requiring additional factors be added during culture) or by staining for proliferation markers.
(§2) In the FIG. 1, the proliferation of cells retrieved from 13 T1D subjects and 15 healthy controls were inspected. […] A normalized proliferation index was calculated for each culture.
(§3) The proliferation of freshly isolated human PBMCs or CD4^+ T cells was evaluated with MTT (3-(4,5-Dimethylthiazol-2-yl)-2,5-Diphenyltetrazolium Bromide) assay (Ring et al., 2012). Cells were suspended in complete medium (RPMI 1640 supplemented with 2 mM glutamine, 25 mM HEPES, 10% heat inactivated fetal bovine serum, 100 U/ml penicillin, 10 mg/ml streptomycin, 5 mM R-mercaptoethanol) in a concentration 1 million cells per milliliter. […] The formazan crystal pellet was dissolved in DMSO and the plate was read within 10 min using a Multiskan MS plate reader (Labsystems) at 550 nm. […]

[2] = tested on: PBMCs from ND individuals; details: Example 2, FIG. 3a; MTT assay
Description: as §1, §2, §3

[3] = tested on: PBMCs from T1D individuals; test: Proliferation of anti-CD3 stimulated PBMCs from T1D donors; assay type: cell-based, human
Description: as §1, §2, §3

responder CD4+ T cells [4] = test: Multiplex PEA of cytokines released into culture medium by responder CD4+ T cells; assay type: cell-based, human
Description: as §3, with “milliliter. The assay was performed in 96-well plates in duplicates or triplicates, where each well was pre-coated with 3 μg/ml anti-CD3 antibody for 3-5 h at 37° C. Each well was loaded with 100,000 cells. Drugs were added to the wells at the relevant concentrations.” for “milliliter.”
(§4) Plasma samples, and culture media samples that were collected from plate wells at the end of the proliferation assay, were analyzed by multiplex PEA with an Olink Inflammation […] panel, targeting 92 proteins related to inflammation (Olink Proteomics, Uppsala, Sweden) as previously described (Edvinsson et al., 2017, Assarsson et al., 2014, Larsson et al., 2015, Larssen et al., 2017). […] The newly formed DNA molecule is then amplified and quantified using a microfluidic real-time qPCR, BioMark™ HD (Fluidigm, South San Francisco, Calif., USA). […]

[5] = tested on: PBMCs from nondiabetic (ND) individuals; details: GABA 100 nM; n=7; FIG. 4b
Description: as §3, with “milliliter. The assay was performed in 96-well plates in duplicates or triplicates, where each well was pre-coated with 3 μg/ml anti-CD3 antibody for 3-5 h at 37° C. Each well was loaded with 100,000 cells. Drugs were added to the wells at the relevant concentrations.” for “milliliter.”
as §4

[6] = tested on: PBMCs from type 1 diabetic (T1D) patients; details: GABA 100 nM; n=13; FIG. 4c
Description: as §3, with “milliliter. The assay was performed in 96-well plates in duplicates or triplicates, where each well was pre-coated with 3 μg/ml anti-CD3 antibody for 3-5 h at 37° C. Each well was loaded with 100,000 cells. Drugs were added to the wells at the relevant concentrations.” for “milliliter.”
as §4

NCCCC(=O)O [GABA, gamma-aminobutyric acid]
inhibition of proliferation (responder CD4+ T cells [1]; 1 μM GABA, FIG. 3d): no inhibition | inhibition at 0.5 µM (responder CD4+ T cells [1]; Homo sapiens, CD4+ T, 72 h, read-out: maximum inhibition of proliferation): ~40% | inhibition of proliferation by GABA [2]: did not inhibit proliferation | inhibition of cell proliferation ([3]; GABA 1 μM, FIG. 3b): did not have any inhibitory effect | inhibition at 0.1 µM ([3]; Homo sapiens, PBMC, read-out: inhibition of cell proliferation): ~20% | number of further distinct cytokines specifically inhibited (responder CD4+ T cells [4]; 100 nM GABA only): 12 cytokines | number of cytokines inhibited by both concentrations (responder CD4+ T cells [4]; both 100 and 500 nM GABA, FIG. 6b): 15 cytokines | number of cytokines whose release was significantly inhibited [5]: 16 cytokines | number of cytokines whose release was significantly inhibited [6]: 47 cytokines
